Drawing on patent US20050069918A1, this text covers binding for one molecule.

Assay [1] addresses GST-p27 fusion protein [GST: P08515]. The assay is described as follows: competition of the peptide (0-20 ug/ml) in the GST-p27 pull-down of 35S-JAB1 (figure legend).
Assay [2] has the same target. The assay can be described thus: competition of the peptide (0-20 ug/ml) in the GST-p27 pull-down of 35S-JAB1.

These are yes or no findings as the source states them, for the method shown. In cells and extracts the contact can be indirect. Some entries that bind do so weakly or less than the wild type.

As for LAKATRDSCKTTIEAIHG [synthetic JAB1-peptide #1 corresponding to JAB1-p27 binding-domain (18 amino acid residues)], the binding result in assay [1] and in assay [2] was “binds” in each case.
